The target of test [1] is T1, TORC1 (Transducer of Regulated CREB activity 1) (UniProt Q6UUV9).
T1 sequence (looked up): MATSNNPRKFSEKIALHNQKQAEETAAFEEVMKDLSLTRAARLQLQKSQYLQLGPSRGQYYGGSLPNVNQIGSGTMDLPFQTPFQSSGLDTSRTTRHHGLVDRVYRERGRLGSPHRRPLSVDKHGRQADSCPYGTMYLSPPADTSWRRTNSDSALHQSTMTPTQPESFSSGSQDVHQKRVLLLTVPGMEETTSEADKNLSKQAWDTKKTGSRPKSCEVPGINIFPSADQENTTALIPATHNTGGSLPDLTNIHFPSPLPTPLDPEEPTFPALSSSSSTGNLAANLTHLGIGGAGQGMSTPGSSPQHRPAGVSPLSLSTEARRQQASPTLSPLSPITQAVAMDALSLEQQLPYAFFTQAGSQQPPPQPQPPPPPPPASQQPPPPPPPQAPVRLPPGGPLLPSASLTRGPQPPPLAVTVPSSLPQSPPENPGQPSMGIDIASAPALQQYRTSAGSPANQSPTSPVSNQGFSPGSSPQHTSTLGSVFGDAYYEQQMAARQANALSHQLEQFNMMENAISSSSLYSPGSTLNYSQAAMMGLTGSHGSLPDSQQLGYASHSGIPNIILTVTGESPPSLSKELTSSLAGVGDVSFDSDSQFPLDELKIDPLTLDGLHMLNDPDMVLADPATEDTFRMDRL
Briefly: pull down assay.

Test [2] addresses T2, TORC N-terminal coiled-coil domain (TORC1-129) (UniProt Q6UUV9).
T2 sequence (looked up): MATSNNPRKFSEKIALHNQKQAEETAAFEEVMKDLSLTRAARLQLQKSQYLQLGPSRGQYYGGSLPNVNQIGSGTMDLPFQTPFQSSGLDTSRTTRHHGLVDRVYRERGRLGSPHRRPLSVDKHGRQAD
Briefly: GST pull-down of 35S-labeled TORC1.

These are yes or no findings as the source states them, for the method shown. For some assays here: Binding seen in cells or lysates may run through a third protein. Some binding calls cover weakened binding; strength is not graded here.

We go through 2 molecules from patent publication US20100190693A1.

B1: CREB leucine zipper motif alone (peptide, UniProt P16220-1 311-341, looked up)
chain: LENRVAVLENQNKTLIEELKALKDLYCHKSD
B1: in test [1], the binding entry was “binds”.

B2: TORC1 (Transducer of Regulated CREB activity 1) (protein, UniProt Q6UUV9 1-634, looked up)
chain: MATSNNPRKFSEKIALHNQKQAEETAAFEEVMKDLSLTRAARLQLQKSQYLQLGPSRGQYYGGSLPNVNQIGSGTMDLPFQTPFQSSGLDTSRTTRHHGLVDRVYRERGRLGSPHRRPLSVDKHGRQADSCPYGTMYLSPPADTSWRRTNSDSALHQSTMTPTQPESFSSGSQDVHQKRVLLLTVPGMEETTSEADKNLSKQAWDTKKTGSRPKSCEVPGINIFPSADQENTTALIPATHNTGGSLPDLTNIHFPSPLPTPLDPEEPTFPALSSSSSTGNLAANLTHLGIGGAGQGMSTPGSSPQHRPAGVSPLSLSTEARRQQASPTLSPLSPITQAVAMDALSLEQQLPYAFFTQAGSQQPPPQPQPPPPPPPASQQPPPPPPPQAPVRLPPGGPLLPSASLTRGPQPPPLAVTVPSSLPQSPPENPGQPSMGIDIASAPALQQYRTSAGSPANQSPTSPVSNQGFSPGSSPQHTSTLGSVFGDAYYEQQMAARQANALSHQLEQFNMMENAISSSSLYSPGSTLNYSQAAMMGLTGSHGSLPDSQQLGYASHSGIPNIILTVTGESPPSLSKELTSSLAGVGDVSFDSDSQFPLDELKIDPLTLDGLHMLNDPDMVLADPATEDTFRMDRL
Consider B2, for which the binding entry in test [2] is “binds”.
